# Source: PMC7819943, “Rice protein-binding microarrays: a tool to detect cis-acting elements near promoter regions in rice”
# The other results are listed elsewhere or left out.
# Biological target: T1, OsSMF1 (Oryza sativa, UniProt Q6ZLB0 1-436)
# T1 sequence: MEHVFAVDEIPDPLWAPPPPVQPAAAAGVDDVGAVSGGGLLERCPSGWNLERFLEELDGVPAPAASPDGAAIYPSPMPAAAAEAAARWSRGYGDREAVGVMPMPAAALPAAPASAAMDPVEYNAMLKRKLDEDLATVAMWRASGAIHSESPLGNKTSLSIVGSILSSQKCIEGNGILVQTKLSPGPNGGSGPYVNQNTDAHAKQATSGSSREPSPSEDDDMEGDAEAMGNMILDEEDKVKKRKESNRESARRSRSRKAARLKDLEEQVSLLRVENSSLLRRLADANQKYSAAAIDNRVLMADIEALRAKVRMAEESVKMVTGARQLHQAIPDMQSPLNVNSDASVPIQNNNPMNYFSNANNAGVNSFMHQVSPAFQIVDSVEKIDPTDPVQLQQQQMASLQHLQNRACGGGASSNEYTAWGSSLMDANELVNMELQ
# Assay: protein-binding microarray (RPBM); PBS, 2% BSA, 51.3 ng/ul salmon testes DNA, 50 uM zinc acetate, 200 nM TF, 25 C, 1 h; high values mean tight binding
# Settings: protein: recombinant; tags: N-terminal polyhistidine and DsRed monomer fusion (pET32a); chain copies: 2; label: CyDye5-dUTP incorporated in the synthesized complementary strand; 3' TTTTT single-stranded linker to array surface; dsDNA, one strand shown
# How it was run: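 Per-feature fluorescence intensity (arbitrary units), read on an Axon 4000B scanner, is the binding signal. Transcription factors carrying an N-terminal polyhistidine tag and DsRed fusion were expressed in E. coli BL21-CodonPlus and purified on Ni–NTA. A custom Agilent array, made double-stranded by primer extension with Cy5-dUTP and blocked with 2% BSA, was incubated with 200 nM protein in PBS, 2% BSA, salmon testes DNA and 50 µM zinc acetate at 25 °C for 1 h and then washed.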
row,Sequence,binding signal
1,GTCGGCCCATGAATATGCTGACGTCACTTTTGAGCCCACTCGGAGTCACCTAGTGCAG,36600 fluorescence intensity (a.u.)
2,CTATTACTGTTAGAAATTAGAAATGTGCATGATTCTGAATCGGAGTCACCTAGTGCAG,22200 fluorescence intensity (a.u.)
3,CCCGCAAGTCCTCCTGGTTGATTTTGACACGCTGGCAGAGCGGAGTCACCTAGTGCAG,5940 fluorescence intensity (a.u.)
4,ATATGGATTTTACAAGTTTTAGGTACTTTCCTTTTATAATCGGAGTCACCTAGTGCAG,25700 fluorescence intensity (a.u.)
5,CCAATCCGCCAAACGGCACACGCACACACGCGCAAGAGGACGGAGTCACCTAGTGCAG,3280 fluorescence intensity (a.u.)
6,AATCCAGTGTCATTTGACTCATTTCCTCTTCCTGCCCTCGCGGAGTCACCTAGTGCAG,5660 fluorescence intensity (a.u.)
7,CCGACAGTGGACGACTTTGTGACGCCGCCGCTGTTTAGGGCGGAGTCACCTAGTGCAG,3610 fluorescence intensity (a.u.)
8,TTTTATCCTACGTGGCTGCTGAGTCAGCGTGGGACCCACACGGAGTCACCTAGTGCAG,25000 fluorescence intensity (a.u.)
9,GTACACCAAGTGTGGGAGCGTTGGCGACGCGGTGAGGCTGCGGAGTCACCTAGTGCAG,3290 fluorescence intensity (a.u.)
10,CATCCGTATTTTAATGTATGACACCGTTGACTTTTCGACTCGGAGTCACCTAGTGCAG,3790 fluorescence intensity (a.u.)
11,ATGATAGCAATATGTGTTGTGTCATACCATCTTTATTTTGCGGAGTCACCTAGTGCAG,4900 fluorescence intensity (a.u.)
12,AGATGTTACGTGACACATGGCGCACACATCTTCCAAATCGCGGAGTCACCTAGTGCAG,3160 fluorescence intensity (a.u.)
13,TGTCCCCGCGCATCCGCGGACGTGGCTGGGCAACTGCTCGCGGAGTCACCTAGTGCAG,8030 fluorescence intensity (a.u.)
14,GTCAGCAATACCGCATTATGATAGAAGTGTAACATTCAACCGGAGTCACCTAGTGCAG,19600 fluorescence intensity (a.u.)
15,CCACAGCTCGCCGCCGTCCATGCTGCAGGTATGTATCATCCGGAGTCACCTAGTGCAG,3220 fluorescence intensity (a.u.)
16,ATGACTTTGGGCTTGGGCCATGACGCACTGCCTGCCTGCCCGGAGTCACCTAGTGCAG,5100 fluorescence intensity (a.u.)
17,CACTACTGTAATGGCCACGCCACCATCGCCACAGATCAATCGGAGTCACCTAGTGCAG,3750 fluorescence intensity (a.u.)
18,CCACGGAGACTAGACAGCCCATCCCCACATCAGCCAGCGACGGAGTCACCTAGTGCAG,3720 fluorescence intensity (a.u.)
19,GTTATAAGACGTTTTGATTTTAGTCAAAGTCAAACTATTCCGGAGTCACCTAGTGCAG,32600 fluorescence intensity (a.u.)
20,CCGCCGGCCCTTGCTGACGCTATCGATCGTGTCCTAACATCGGAGTCACCTAGTGCAG,4930 fluorescence intensity (a.u.)
21,ATATCCAAGTGACAGTGGTTGGTTTGCTGCGGACATGGCACGGAGTCACCTAGTGCAG,3410 fluorescence intensity (a.u.)

row,Sequence,binding signal
1,CCATCAGCCGACAACGTGTCATGTTCACGAGGGCGACTCGCGGAGTCACCTAGTGCAG,4890 fluorescence intensity (a.u.)
2,CGGAACGTCCGCGTCAGACTAGTGCAGTGCAGCCCGCAACCGGAGTCACCTAGTGCAG,5110 fluorescence intensity (a.u.)
3,TGCTCCACGGAGGCGCCAGCGTGGACAAGAGTAGTTTTACCGGAGTCACCTAGTGCAG,4190 fluorescence intensity (a.u.)
4,TAACTAATTAGTTAACTAATCGTCAATGTCACTAGCTTCTCGGAGTCACCTAGTGCAG,3490 fluorescence intensity (a.u.)
5,ATTCGGATTCCTCCAGCTACCGACACGCCGACACTTGTCACGGAGTCACCTAGTGCAG,3820 fluorescence intensity (a.u.)
6,AAACCACCCCACCTTGCATACTATGTTCATCCTCGTGTCACGGAGTCACCTAGTGCAG,4020 fluorescence intensity (a.u.)
7,TGTATACTTCTGTACCTGATTACACCTGTAAATCTTGAACCGGAGTCACCTAGTGCAG,3180 fluorescence intensity (a.u.)
8,GAGTGGGGAGAGGGAGATGACATGTGGGGCCCACGGGCCTCGGAGTCACCTAGTGCAG,5310 fluorescence intensity (a.u.)
9,AGCATCCGCCAGGTGTCCACCGTTTTACCGGCACCTGCCTCGGAGTCACCTAGTGCAG,4120 fluorescence intensity (a.u.)
10,CATTGAAAGATTCCTTTGCCATATGTTCATATACGTCGAACGGAGTCACCTAGTGCAG,26900 fluorescence intensity (a.u.)
11,AGGCGTGACGCTTGCGTGGCTGTGTGCTAGTGTACGTGTGCGGAGTCACCTAGTGCAG,11900 fluorescence intensity (a.u.)
12,TCGGGCCCGATCCCTCCTCGAGGGAGGGCCACGTGGCGCCCGGAGTCACCTAGTGCAG,20700 fluorescence intensity (a.u.)
13,ACCCGCGCACGACGCAGACGCCGCGCGCGTCACGAGGCCCCGGAGTCACCTAGTGCAG,4910 fluorescence intensity (a.u.)
14,CGTGATAAAATGCTTTAGTAAACACGATTTCGCCACGTTACGGAGTCACCTAGTGCAG,3650 fluorescence intensity (a.u.)
15,CAAATCAAATTACCACATAAGCACCACGTCAATGCCACGTCGGAGTCACCTAGTGCAG,22200 fluorescence intensity (a.u.)
16,ATTCGCCATTTCCGCCCACTGCCACGCCAACGCCACTGCTCGGAGTCACCTAGTGCAG,4960 fluorescence intensity (a.u.)
17,TGGACGGACGGAGTATAACGCTATCAGTGACTAAGCTACTCGGAGTCACCTAGTGCAG,3260 fluorescence intensity (a.u.)
18,TCCTCCTCTCCTCCACACATCCAGGCAGGCAACACAAGAACGGAGTCACCTAGTGCAG,41800 fluorescence intensity (a.u.)
19,TAAATACTGGTGGGTCCCACATGTCATCGACAACCTATCTCGGAGTCACCTAGTGCAG,3420 fluorescence intensity (a.u.)
20,AAGCTGGAATACATCCAGTGTTCCACGTAAGCCAGCTGAACGGAGTCACCTAGTGCAG,7900 fluorescence intensity (a.u.)
21,CAATGGCCACGCCGTCTTGCAACCGCACTACTGCAGTTACCGGAGTCACCTAGTGCAG,3350 fluorescence intensity (a.u.)

# An excerpt from the list above:
row,Sequence,binding signal
2,CGGAACGTCCGCGTCAGACTAGTGCAGTGCAGCCCGCAACCGGAGTCACCTAGTGCAG,5110 fluorescence intensity (a.u.)
3,TGCTCCACGGAGGCGCCAGCGTGGACAAGAGTAGTTTTACCGGAGTCACCTAGTGCAG,4190 fluorescence intensity (a.u.)
4,TAACTAATTAGTTAACTAATCGTCAATGTCACTAGCTTCTCGGAGTCACCTAGTGCAG,3490 fluorescence intensity (a.u.)
